Assay results from PMC6113226.

Experiments:
Experiment in all cases: co-IP; lysates of Xenopus gastrula (stage 10) embryos injected with RNAs of tagged proteins; ice-cold TNSG buffer (20 mM Tris-HCl pH 7.5, 137 mM NaCl, 1% NP-40); IP 8 h, 25 embryo equivalents, anti-Flag, HA or V5-agarose; western blot; in some panels Dsh2-MO, Dsh2-MOR RNA, caFGFR or EphB-ΔC RNAs co-injected
[1] = target: Rab5
[2] = target: ephrinB2-Δ4-HA (ephrinB2 mutant that lacks the PDZ-binding motif) (Xenopus)
[3] = target: Rab35

B1: TBC1d24-V5 (wild-type Xenopus TBC1d24, V5-tagged) (protein, UniProt A1A5K6 1-562)
chain: MDEAEYGRFVDWDKMEAGGQEQSPKVLSCTDFQELKQMARQGHWAKSHTLRAKVYQKLIKEIPCRTVTPDASVYRDIVGKIVGKRSASSLPLPEFVDDRQIPSYSLNSEGTGAVRKIISCISNQFPDISFCPALPSLVALLLHYSQDEAECFENVSRILACNDPNRRLVDQTFLAFESSCMTFGDLAGKYCQGPHKLMVAVSEDVLELYSDWQRWIFGELPFAYITRVFDVFLVEGYKVLFRVALALLKFFHKVRGGQPMESNNVKRDLQMFVRDLNKCVTPEKLLEKAFAIRLFSRKEIQLLQMANEKALQQKGITVKQKRQNVHLAVHAENFTSEIVSVKEMRDIWSWIPERFALSQPLLLFTNREHGNSLSRFYLHCEGHEPTLLLIKTTNQEVCGAFLSTDWSERKRSGNKLSFFGTGECFVFRLQPEVERYEWVVIKHPELGKVNSSSADKEANSSQSDKDGIDPSSRLSPFLATRHFNLPSKTASMFMAGSIDCIIIGGGDGQALYLDPDLNYGRTSHCNTFNNQPLCSETFQISIIEVWGFKDNMNNDGAHSALH
Q: Which binding [1] does the source give for B1 here?
A: binds

Q: And the binding [2]?
A: no binding

Q: And the binding [3]?
A: binds

No constants are given. Whether binding was seen depends on the method and setting. Binding seen in cells or lysates may run through a third protein. For part of these data: A result given as binding can be weak or reduced; the word gives no strength. Sequences can lack the tags named with a protein.
